We go through one substance from doi:10.1101/224824.

The chains behind the UniProt entries cited, without tags or fusion partners.
UniProt P49770, whole entry: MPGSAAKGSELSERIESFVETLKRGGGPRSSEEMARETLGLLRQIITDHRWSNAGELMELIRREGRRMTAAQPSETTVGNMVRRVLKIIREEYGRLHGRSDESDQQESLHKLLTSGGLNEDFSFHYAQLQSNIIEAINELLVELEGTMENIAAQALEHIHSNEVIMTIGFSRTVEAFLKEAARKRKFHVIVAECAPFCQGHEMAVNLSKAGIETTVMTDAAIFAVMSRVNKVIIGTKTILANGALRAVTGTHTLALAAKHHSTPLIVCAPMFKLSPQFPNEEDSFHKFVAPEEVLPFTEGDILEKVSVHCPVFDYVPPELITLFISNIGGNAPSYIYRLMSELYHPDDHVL
UniProt O14744, whole entry: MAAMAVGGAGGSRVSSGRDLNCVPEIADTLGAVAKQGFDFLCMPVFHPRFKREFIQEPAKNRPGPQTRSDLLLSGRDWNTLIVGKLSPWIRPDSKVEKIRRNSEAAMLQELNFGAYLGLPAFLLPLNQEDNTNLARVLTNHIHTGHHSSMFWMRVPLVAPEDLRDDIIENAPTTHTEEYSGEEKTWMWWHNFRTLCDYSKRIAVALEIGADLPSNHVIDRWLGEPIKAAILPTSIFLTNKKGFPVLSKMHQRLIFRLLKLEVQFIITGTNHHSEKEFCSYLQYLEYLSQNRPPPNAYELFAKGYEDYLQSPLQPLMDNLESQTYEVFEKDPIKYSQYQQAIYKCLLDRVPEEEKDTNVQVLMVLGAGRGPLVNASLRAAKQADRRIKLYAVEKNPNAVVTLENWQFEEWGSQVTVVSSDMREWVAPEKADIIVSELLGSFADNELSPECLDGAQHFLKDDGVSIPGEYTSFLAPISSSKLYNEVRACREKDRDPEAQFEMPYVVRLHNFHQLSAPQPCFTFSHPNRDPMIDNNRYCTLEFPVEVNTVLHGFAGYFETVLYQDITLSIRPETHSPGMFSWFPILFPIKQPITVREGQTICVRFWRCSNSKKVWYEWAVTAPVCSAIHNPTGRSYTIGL

The experiment addresses 3xFLAG-tagged human eIF2B β subunit (human) (UniProt P49770). As to the kind of experiment: SEC. A general note: SEC sorts molecules by how far they enter the pores of the column.

No constants are given. Whether binding was seen depends on the method and setting.

With PRMT5 (from UniProt O14744 1-637), the binding result is given as “no binding”.
